This experiment has as its target RNAP β′ subunit with chromosomally encoded C-terminal His10-tag (B. subtilis) (UniProt P37871). The experiment in a line: co-purification; RNAP captured from lysates of stationary phase B. subtilis by the C-terminal His10-tag on β′ (Ni-NTA), then heparin column and SEC, 4 °C; content of the fractions told from gels (strains MH5636, LK782, LK1032).

Sequences of proteins named here, by UniProt entry; tags and fusion partners are left off.
UniProt P37871: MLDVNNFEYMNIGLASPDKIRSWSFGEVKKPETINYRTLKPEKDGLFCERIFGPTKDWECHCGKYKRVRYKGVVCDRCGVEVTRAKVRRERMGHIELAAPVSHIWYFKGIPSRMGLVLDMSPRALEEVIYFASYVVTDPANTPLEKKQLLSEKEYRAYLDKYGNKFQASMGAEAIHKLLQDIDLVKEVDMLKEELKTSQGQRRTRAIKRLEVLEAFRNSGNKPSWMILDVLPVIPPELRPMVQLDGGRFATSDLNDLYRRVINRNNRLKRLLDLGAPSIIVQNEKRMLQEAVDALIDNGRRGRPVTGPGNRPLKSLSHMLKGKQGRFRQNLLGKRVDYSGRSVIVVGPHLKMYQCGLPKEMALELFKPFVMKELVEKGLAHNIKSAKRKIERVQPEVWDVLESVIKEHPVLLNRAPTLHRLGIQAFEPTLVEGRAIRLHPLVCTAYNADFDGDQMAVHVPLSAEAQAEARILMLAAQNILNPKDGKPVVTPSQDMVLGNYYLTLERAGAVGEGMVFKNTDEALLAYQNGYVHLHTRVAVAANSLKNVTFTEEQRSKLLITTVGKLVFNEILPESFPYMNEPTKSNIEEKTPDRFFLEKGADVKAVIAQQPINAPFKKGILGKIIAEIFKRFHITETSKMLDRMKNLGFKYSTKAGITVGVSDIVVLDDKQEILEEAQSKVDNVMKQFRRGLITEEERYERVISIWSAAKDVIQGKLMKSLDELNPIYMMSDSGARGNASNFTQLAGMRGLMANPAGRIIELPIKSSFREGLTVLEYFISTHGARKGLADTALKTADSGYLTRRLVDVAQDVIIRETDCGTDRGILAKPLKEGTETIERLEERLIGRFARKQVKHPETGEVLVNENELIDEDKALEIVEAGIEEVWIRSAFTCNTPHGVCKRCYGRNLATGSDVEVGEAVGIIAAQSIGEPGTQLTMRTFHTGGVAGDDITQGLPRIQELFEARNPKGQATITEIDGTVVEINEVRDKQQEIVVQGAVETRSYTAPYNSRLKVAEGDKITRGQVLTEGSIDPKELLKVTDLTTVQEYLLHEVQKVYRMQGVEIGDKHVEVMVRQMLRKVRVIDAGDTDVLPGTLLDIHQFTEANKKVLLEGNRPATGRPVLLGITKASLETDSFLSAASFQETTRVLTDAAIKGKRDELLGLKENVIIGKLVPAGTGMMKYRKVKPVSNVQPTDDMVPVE

Our source for the binding values is paper PMC7749165, “The δ subunit and NTPase HelD institute a two-pronged mechanism for RNA polymerase recycling” (Nature Communications, 2020).

No constants are given. Whether binding was seen depends on the method and setting. Some entries that bind do so weakly or less than the wild type.

B1: PriA, co-purified with RNAP (protein, UniProt P94461 1-805)
chain: MNFAEVIVDVSTKNIDRPFDYKIPDHLKGMIKTGMRVIVPFGPRKIQGFVTAVKEASDLSGKSVKEVEDLLDLTPVLTEELMILSSWLSDKTLSFKITALQAMLPAALKAKYEKELKIAHGADLPPQVERLFSETKTLLYSDIPDHETLKLIQRHVQKGDIDVTYKVAQKTNKKMVRHIQANASKEELAKQAEGLSRQAAKQQAILHFLISEPEGVKIPAAELCKKTDTSSATIKTLIQKGLLKESYEEVYRDPYQDKMFKKTEPLPLTDEQRAAFEPIRETLDSDEHKVFLLHGVTGSGKTEIYLQSIEKVLAKGKEAIVLVPEISLTPQMVNRFKGRFGSQVAVMHSGLSTGEKYDEWRKIHRKEVRLVVGARSAIFAPFENLGMIIIDEEHESSYKQEEMPRYHAKEVAIKRAEHHSCPVVLGSATPTLESYARAQKGVYELLSLKHRVNHRVMPEVSLVDMREELRNGNRSMFSVELMEKLEETIAKGEQAVLFLNKRGYSSFVMCRDCGYVPQCPHCDISMTYHRYGQRLKCHYCGHEEPVPHTCPECASEHIRFFGTGTQRVEEELTKVLPSARVIRMDVDTTSRKGAHEKLLSAFGEGKADILLGTQMIAKGLDFPNVTLVGVLSADTTLHIPDFRSAEKTFQLLTQVSGRAGRHEKPGHVIIQTYTPSHYSIQLTKTHDYETFYQHEMAHRREQSYPPYYYLALVTVSHEEVAKAAVTAEKIAHFLKANCGADTKILGPSASPIARIKDRYRYQCVIKYKQETQLSALLKKILEHYKREIEQKHVMISIDMNPYMMM
In the case of B1, the binding entry is “binds”.

B2: σ^B, co-purified with RNAP (protein, UniProt P06574 1-262)
chain: MTQPSKTTKLTKDEVDRLISDYQTKQDEQAQETLVRVYTNLVDMLAKKYSKGKSFHEDLRQVGMIGLLGAIKRYDPVVGKSFEAFAIPTIIGEIKRFLRDKTWSVHVPRRIKELGPRIKMAVDQLTTETQRSPKVEEIAEFLDVSEEEVLETMEMGKSYQALSVDHSIEADSDGSTVTILDIVGSQEDGYERVNQQLMLQSVLHVLSDREKQIIDLTYIQNKSQKETGDILGISQMHVSRLQRKAVKKLREALIEDPSMELM
Regarding B2, the binding result was “binds”.
